Assay results published in PubChem BioAssay AID540256 (National Center for Advancing Translational Sciences (NCATS), 2011).
Out of some 300,000 compounds screened, about 3,700 (1.2%) were called active. This list was built around the results that the source calls inconclusive (neither active nor inactive); the mix of calls is not that of the screen. Calls follow the shape of the full dose curve; tested in HEK293 cells. Potencies of inconclusive entries are doubtful fits and often do not repeat.
% is scaled to controls: 0 for no effect and ±100 for the full control effect; potency is read from the fitted curve at half-maximal effect.

Experiment: qHTS for Inhibitors of binding or entry into cells for Lassa Virus; also: nearly all actives have a fitted effect of over 50% in size
Details: Lassa virus pseudotype entry inhibition, cell reporter; activity change, negative = inhibition: at 37.9 µM (top of the series) unless noted
For `COc1cc(/C=N/NC(=O)c2sc(N)c(C#N)c2C)cc(Br)c1O`, the Potency was inconclusive: 0.708 µM [inhibitor, full curve, poor fit].
With `Cc1sc2ncn(CC(=O)NCCCC(=O)N3CCC(C)CC3)c(=O)c2c1C` the Potency was inconclusive: 1.26 µM [inhibitor, single point].
For `O=C(CCCCn1c(=O)c2ccccc2n(Cc2ccc(F)cc2Cl)c1=O)NCc1ccco1`, the Potency was inconclusive: 8.91 µM [inhibitor, partial curve, poor fit].
For `Cc1ccc(-n2ncc3c2ncn2c(C)nnc32)cc1C`, the “activity change, negative = inhibition” value was inactive: -12.4%.
In the case of `Cc1ccc(-n2nc(C(=O)N3CCN(c4ccccc4)CC3)c(=O)n(C)c2=O)cc1`, the Potency is reported as inconclusive: 7.08 µM [inhibitor, partial curve, poor fit].
With `CN(C)CCCO[C@@H]1[C@H]2OC(C)(C)O[C@H]2O[C@@H]1[C@H](O)CO` the “activity change, negative = inhibition” value was inactive: 13.6%.
With `CCOC(=O)c1sc2nc(C)nc(N3CCN(S(=O)(=O)c4ccccc4)CC3)c2c1C` the Potency was inconclusive: 10 µM [inhibitor, partial curve, poor fit].
With `CN(C)S(=O)(=O)Nc1ccc(-c2cn3ccsc3n2)cc1` the “activity change, negative = inhibition” value was inactive: 29.9% [at 46.1 µM].
For `C/C(=N\Nc1nc2c(s1)CCCC2)c1ccccc1`, the Potency was inconclusive: 4.11 µM [inhibitor, single point].
In the case of `CN(C(=O)c1cccnc1)c1nnc(-c2cnccn2)s1`, the “activity change, negative = inhibition” value is reported as inactive: 6.14%.
In the case of `COc1cccc(CC(=O)NCc2ccc3c(c2)CCN3C(C)=O)c1`, the Potency is reported as inconclusive: 4.47 µM [activator, full curve, poor fit].
In the case of `O=C(c1cc(-c2cccc(Cl)c2)on1)N1CCOCC1`, the Potency is reported as inconclusive: 6.31 µM [activator, single point].
For `COc1ccc(NC(=O)CCC(=O)Nc2nnc(CC(C)C)s2)cc1Cl`, the Potency was inconclusive: 28.2 µM [activator, partial curve, poor fit].
In the case of `CCOc1ccc(-n2c(=O)[nH]cc(C(=O)N3CCc4ccccc43)c2=O)cc1`, the “activity change, negative = inhibition” value is reported as inactive: -15.9%.
With `CC(=O)Nc1ccc(Nc2ccc([N+](=O)[O-])cn2)cc1` the “activity change, negative = inhibition” value was inactive: -2.1% [at 46.1 µM].
With `CCCN1CCN(c2ncnc3sc(C(=O)Nc4ccc(N(CC)CC)cc4C)c(C)c23)CC1` the Potency was inconclusive: 8.91 µM [activator, partial curve, poor fit].
For `Cc1cc(-n2c(=O)c(C#N)cc3c(=O)n4ccccc4nc32)no1`, the “activity change, negative = inhibition” value was inactive: 16.4%.
With `CCCn1c(N2CCN(CC(=O)c3c(C)n(C)c4ccc(OC)cc34)CC2)nc2c1c(=O)[nH]c(=O)n2C` the Potency was inconclusive: 35.5 µM [inhibitor, single point].
For `Cc1ccc(S(=O)(=O)NC(C)(C)CSc2ccccn2)cc1`, the “activity change, negative = inhibition” value was inactive: 3.79%.
In the case of `Cc1cc(C)cc(Nc2ncc3c(n2)CC(c2ccco2)CC3=O)c1` (stereo unspecified), the Potency is reported as inconclusive: 13 µM [inhibitor, partial curve, poor fit].
For `CN(C(=O)c1ccccc1)c1nccnc1C#N`, the Potency was inconclusive: 35.5 µM [activator, single point].
With `O=C(Nc1ccc(N2CCCC2)c(Cl)c1)c1ccco1` the Potency was active: 11.6 µM.
For `Cc1cccc(C)c1NC(=O)CSc1nnnn1C`, the Potency was inconclusive: 16.4 µM [activator, single point].
With `Cc1ccc(Nc2ccc(C(=O)N3CCCC3)cn2)c(C)c1` the “activity change, negative = inhibition” value was inactive: 9.29%.
With `Fc1ccccc1OCCCCCN1CCCC1` the “activity change, negative = inhibition” value was inactive: -0.29%.
With `COc1cccc(C(=O)Nc2cc(OC)ccc2NC(=O)c2ccco2)c1` the Potency was inconclusive: 0.251 µM [inhibitor, full curve, poor fit].
In the case of `O=C(NC(C(=O)c1ccccc1)N1CCOCC1)c1cccs1` (stereo unspecified), the Potency is reported as inconclusive: 18.3 µM [activator, partial curve, poor fit].
For `Cc1[nH]nc(-c2ccc(OCc3cnn(-c4ccccc4)c3)c(C)c2O)c1Oc1ccccc1`, the Potency was inconclusive: 3.55 µM [inhibitor, partial curve, poor fit].
For `Cc1cccc(/C=N/c2sc3c(c2C#N)CCN(Cc2ccccc2)C3)c1O`, the Potency was inconclusive: 0.891 µM [activator, single point].
With `O=C(NN=C1CCCC1)c1[nH]c2ccc(Br)cc2c1-c1ccccc1` the Potency was inconclusive: 12.6 µM [inhibitor, partial curve, poor fit].
For `O=C(N/N=C/c1[nH]c2ccccc2c1Cl)c1cccc(Br)c1`, the “activity change, negative = inhibition” value was inactive: -12.2% [at 46.1 µM].
For `O=C(Nc1ccc2oc(-c3cccnc3)nc2c1)c1ccc(-c2cccc(OC(F)(F)F)c2)o1`, the “activity change, negative = inhibition” value was inactive: 15.2% [at 46.1 µM].
In the case of `COc1cccc(N2CCN(C(=O)c3ccc(CS(=O)c4cccc(Cl)c4)o3)CC2)c1` (stereo unspecified), the “activity change, negative = inhibition” value is reported as inactive: -24.9% [at 46.1 µM].
With `O=C(CSc1nnc(-c2ccc(Cl)cc2)n1-c1ccc(Cl)cc1)N/N=C/c1ccccc1C(=O)O` the “activity change, negative = inhibition” value was inactive: 1.08%.
With `CC(NC(=O)c1ccc2nc(CCc3ccccc3)oc2c1)c1ccccc1` (stereo unspecified) the “activity change, negative = inhibition” value was inactive: -8.23% [at 46.1 µM].
In the case of `COCCCNC(=O)CNC(=S)N(Cc1ccccc1)Cc1cccnc1`, the “activity change, negative = inhibition” value is reported as inactive: 3.13% [at 46.1 µM].
With `Cc1onc(-c2ccccc2)c1C(=O)Nc1ccc(-c2nnc3n2CCCCC3)cc1` the Potency was inconclusive: 0.651 µM [inhibitor, partial curve, poor fit].
For `Cc1ccc(C(=O)Nc2ccc(-c3csc(C)n3)cc2)cc1`, the Potency was inconclusive: 35.5 µM [inhibitor, single point].
In the case of `O=c1[nH]c(-c2ccccc2)cnc1-c1ccccc1`, the Potency is reported as inconclusive: 1.41 µM [inhibitor, partial curve, poor fit].
For `CC1CCCCC1NC(=O)c1ccc(S(=O)(=O)NCc2ccco2)cc1` (stereo unspecified), the “activity change, negative = inhibition” value was inactive: 0.479%.
With `Cc1cc(C)c(C(=O)COC(=O)[C@H](C)Nc2ccc(C(F)(F)F)cc2[N+](=O)[O-])c(C)c1` the Potency was inconclusive: 1.16 µM [inhibitor, single point].
With `COC(=O)c1ccc(CSc2nnc(NC(=O)C3CCCO3)s2)cc1` (stereo unspecified) the Potency was inconclusive: 4.47 µM [inhibitor, single point].
For `COc1ccc(-c2csc3ncnc(Oc4cccc5ccc(C)nc45)c23)cc1`, the “activity change, negative = inhibition” value was inactive: -21.6%.
With `Cc1cccc(Nc2nc(N3CCOCC3)nc(N3CCOCC3)n2)c1` the Potency was inconclusive: 6.31 µM [inhibitor, partial curve, poor fit].
For `Cc1nn(CCC(=O)NC(C)C)c(=O)c2nn(-c3ccccc3)c(C)c12`, the “activity change, negative = inhibition” value was inactive: -16.6% [at 46.1 µM].
